Source: PMC6994238
Results are given in words; binding and its absence hold for the method and conditions named. Binding can be weak; no strength is given. One block for each substance: values may come before it.

By UniProt entry, the sequences of proteins in these tests, tags left out. Where a name states a change or a piece, a line headed by the entry shows the natural chain unless it says otherwise.
UniProt Q22ZH2: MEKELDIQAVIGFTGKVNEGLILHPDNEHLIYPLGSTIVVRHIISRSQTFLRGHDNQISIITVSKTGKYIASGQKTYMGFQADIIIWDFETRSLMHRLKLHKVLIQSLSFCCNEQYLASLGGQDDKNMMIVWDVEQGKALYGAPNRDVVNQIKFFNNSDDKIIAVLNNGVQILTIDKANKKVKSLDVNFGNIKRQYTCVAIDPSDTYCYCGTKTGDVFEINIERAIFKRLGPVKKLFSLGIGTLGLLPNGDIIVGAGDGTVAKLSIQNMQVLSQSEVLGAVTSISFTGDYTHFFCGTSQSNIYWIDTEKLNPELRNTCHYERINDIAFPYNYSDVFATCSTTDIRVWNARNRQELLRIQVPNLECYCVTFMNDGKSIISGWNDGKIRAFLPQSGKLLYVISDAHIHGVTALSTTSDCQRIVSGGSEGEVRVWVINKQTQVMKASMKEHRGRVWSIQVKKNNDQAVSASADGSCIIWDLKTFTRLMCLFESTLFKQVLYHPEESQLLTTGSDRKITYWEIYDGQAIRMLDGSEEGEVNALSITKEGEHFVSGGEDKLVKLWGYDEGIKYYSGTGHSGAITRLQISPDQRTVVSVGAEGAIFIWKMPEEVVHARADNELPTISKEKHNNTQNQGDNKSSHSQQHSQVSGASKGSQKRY
UniProt B1B601: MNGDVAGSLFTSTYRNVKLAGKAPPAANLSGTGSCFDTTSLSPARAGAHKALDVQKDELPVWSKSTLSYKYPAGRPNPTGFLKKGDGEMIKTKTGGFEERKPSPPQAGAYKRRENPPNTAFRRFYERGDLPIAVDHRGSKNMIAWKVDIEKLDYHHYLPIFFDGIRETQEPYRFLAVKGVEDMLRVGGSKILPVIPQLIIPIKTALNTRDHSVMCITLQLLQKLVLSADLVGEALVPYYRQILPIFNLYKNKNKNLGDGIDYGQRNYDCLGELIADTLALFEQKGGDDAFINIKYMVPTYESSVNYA
UniProt P04690: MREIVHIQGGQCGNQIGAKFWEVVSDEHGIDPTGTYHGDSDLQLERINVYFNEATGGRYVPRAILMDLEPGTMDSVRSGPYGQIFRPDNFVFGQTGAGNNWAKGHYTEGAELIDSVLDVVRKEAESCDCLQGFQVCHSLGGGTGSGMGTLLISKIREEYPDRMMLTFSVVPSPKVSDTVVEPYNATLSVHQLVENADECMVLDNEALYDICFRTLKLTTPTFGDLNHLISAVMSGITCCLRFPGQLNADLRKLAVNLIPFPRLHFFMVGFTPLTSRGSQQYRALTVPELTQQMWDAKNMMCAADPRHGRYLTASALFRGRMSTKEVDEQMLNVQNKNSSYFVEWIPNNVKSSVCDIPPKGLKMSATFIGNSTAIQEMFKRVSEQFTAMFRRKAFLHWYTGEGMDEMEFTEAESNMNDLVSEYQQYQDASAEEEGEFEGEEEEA
UniProt P41351: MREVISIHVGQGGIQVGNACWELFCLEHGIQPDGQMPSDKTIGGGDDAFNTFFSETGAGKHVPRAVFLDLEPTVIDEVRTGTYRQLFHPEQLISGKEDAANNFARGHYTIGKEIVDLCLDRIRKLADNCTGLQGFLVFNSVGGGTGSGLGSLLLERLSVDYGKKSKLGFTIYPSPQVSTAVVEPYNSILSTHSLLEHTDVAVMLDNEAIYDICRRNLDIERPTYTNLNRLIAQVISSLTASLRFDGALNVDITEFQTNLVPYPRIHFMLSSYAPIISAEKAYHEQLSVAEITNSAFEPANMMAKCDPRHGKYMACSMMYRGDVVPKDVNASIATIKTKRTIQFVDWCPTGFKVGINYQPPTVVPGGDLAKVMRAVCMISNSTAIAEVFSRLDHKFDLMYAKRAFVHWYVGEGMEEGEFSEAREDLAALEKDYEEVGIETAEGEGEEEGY
UniProt W7XCX2: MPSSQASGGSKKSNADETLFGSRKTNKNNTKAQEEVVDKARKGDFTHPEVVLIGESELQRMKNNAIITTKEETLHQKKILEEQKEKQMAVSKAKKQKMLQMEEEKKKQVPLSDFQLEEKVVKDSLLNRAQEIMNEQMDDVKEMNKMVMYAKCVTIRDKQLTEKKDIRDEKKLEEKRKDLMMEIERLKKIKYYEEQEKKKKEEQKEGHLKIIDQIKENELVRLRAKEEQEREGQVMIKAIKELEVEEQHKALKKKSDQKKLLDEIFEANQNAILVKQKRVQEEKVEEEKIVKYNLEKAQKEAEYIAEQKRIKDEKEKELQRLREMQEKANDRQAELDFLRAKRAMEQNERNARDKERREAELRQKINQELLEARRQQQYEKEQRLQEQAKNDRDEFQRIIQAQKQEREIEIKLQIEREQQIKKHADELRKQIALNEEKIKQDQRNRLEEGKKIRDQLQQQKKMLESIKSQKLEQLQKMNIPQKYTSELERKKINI
UniProt A0A2K3D260: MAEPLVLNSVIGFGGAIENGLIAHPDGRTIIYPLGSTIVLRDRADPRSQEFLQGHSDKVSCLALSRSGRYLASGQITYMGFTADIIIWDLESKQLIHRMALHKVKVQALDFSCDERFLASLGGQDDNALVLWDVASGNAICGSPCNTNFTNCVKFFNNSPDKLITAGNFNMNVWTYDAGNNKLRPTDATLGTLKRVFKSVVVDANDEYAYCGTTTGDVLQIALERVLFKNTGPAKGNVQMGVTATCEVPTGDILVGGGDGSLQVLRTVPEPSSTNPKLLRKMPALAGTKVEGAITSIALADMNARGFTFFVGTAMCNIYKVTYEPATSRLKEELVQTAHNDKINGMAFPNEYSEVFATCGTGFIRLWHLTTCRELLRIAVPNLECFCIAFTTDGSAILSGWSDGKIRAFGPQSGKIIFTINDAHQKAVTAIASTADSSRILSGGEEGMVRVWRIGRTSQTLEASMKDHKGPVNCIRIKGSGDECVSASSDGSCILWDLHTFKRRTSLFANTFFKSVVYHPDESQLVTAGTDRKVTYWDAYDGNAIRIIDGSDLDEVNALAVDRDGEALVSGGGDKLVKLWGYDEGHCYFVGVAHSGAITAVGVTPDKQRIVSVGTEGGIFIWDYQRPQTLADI
UniProt I7M279: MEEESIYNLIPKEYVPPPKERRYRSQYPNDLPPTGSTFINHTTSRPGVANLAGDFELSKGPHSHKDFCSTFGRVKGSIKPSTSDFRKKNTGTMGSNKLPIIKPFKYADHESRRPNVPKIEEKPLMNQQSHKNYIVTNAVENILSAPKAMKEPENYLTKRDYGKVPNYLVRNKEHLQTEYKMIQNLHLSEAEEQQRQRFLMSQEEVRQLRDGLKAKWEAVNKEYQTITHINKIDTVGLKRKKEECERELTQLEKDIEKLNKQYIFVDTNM

Assays:
[1] = target: FAP52, Tetrahymena thermophila (Tetrahymena thermophila) (UniProt Q22ZH2); assay: cryo-EM structure; salt-treated doublet microtubules isolated from Tetrahymena; 48 nm and 16 nm repeat maps; lower resolution in the inner junction region; no Tetrahymena atomic model
[2] = target: PArkin Co-Regulated Gene (PACRG), Chlamydomonas reinhardtii (Chlamydomonas reinhardtii) (UniProt B1B601); assay: cryo-EM structure; taxol-stabilised, 0.6 M NaCl-washed doublet microtubules isolated from Chlamydomonas flagella; 16 nm repeat map, focused refinement of the inner junction to 3.6 Å; atomic model PDB 6VE7
[3] = target: β-tubulin, Chlamydomonas reinhardtii (Chlamydomonas reinhardtii) (UniProt P04690); assay: as above
[4] = target: α-tubulin, Tetrahymena thermophila (Tetrahymena thermophila) (UniProt P41351); assay: cryo-EM structure; salt-treated doublet microtubules isolated from Tetrahymena; 48 nm and 16 nm repeat maps; lower resolution in the inner junction region; no Tetrahymena atomic model

- binding [1]: binds
Substance: FAP45, Tetrahymena thermophila (from UniProt W7XCX2)

- binding [2]: binds
- binding [3]: binds
Substance: FAP52, Chlamydomonas reinhardtii (from UniProt A0A2K3D260)

- binding [4]: binds
Substance: FAP52, Tetrahymena thermophila (from UniProt Q22ZH2)

- binding [4]: binds
Substance: Tetrahymena thermophila homolog of FAP106 (Tether loop) (from UniProt I7M279)
